Reference: PubChem BioAssay AID1347076 (National Center for Advancing Translational Sciences (NCATS), 2019)
About 13,000 (3.2%) of roughly 400,000 compounds were called active. Inconclusive means that the source gave no clear call. Such entries were picked first, then a sample of the others. Calls come from the whole dose curve; as a rule, active = well fitted cell-killing curve with a large enough effect; inconclusive = small, poorly fitted or top-dose-only effect, or effect the other way; inactive = flat fitted curve, though single readings scatter. Potencies beside an inconclusive call are fits to weak or partial responses and may not hold up.

Assay: qHTS assay for MDR1-selective chemotherapeutics: Primary screen using the drug-selected MDR subline cells KB-V1; note: nearly all actives have a fitted effect of over 60% in size
Settings: KB-V1 MDR cells viability, CellTiter-Glo, 72 h; series mostly up to 46.1 µM
Summary of the method: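 KB-V1 cells (P-gp-expressing MDR subline of KB-3-1) in phenol-red-free DMEM with 10% FBS were exposed to library compounds over a concentration series for 72 h at 37 degrees C. Viability read by CellTiter-Glo luminescence; concentration-effect curves fitted after normalization.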
Potency is the fitted concentration of half-maximal effect.

Compound | Potency
Cc1[nH]c2c(C)cccc2c1CCNS(=O)(=O)c1cccc([N+](=O)[O-])c1 | active: 23.1 µM
CC1=NN(C(=O)c2ccc(Cn3cc([N+](=O)[O-])cn3)cc2)C(O)(C(F)(F)F)C1 (centres undefined) | inactive
COCCCC1CCN(C(=O)C2CCC(=O)N(CCCc3ccccc3)C2)CC1 (centres undefined) | inconclusive: 25.9 µM [cytotoxic, single point]
Clc1ccc(Nc2nc(-c3cccs3)cs2)nc1 | inconclusive: 25.9 µM [cytotoxic, single point]
O=C(NNC(=O)C(c1ccccc1)c1ccccc1)c1ccccc1O | inconclusive: 7.31 µM [cytotoxic, partial curve]
CCCn1nc(NC(=O)C(C)(C)C)c2cc3cc(OC)ccc3nc21 | inconclusive: 29.1 µM [rising, single point]
COc1ccc2nc(NC(=O)C3CCN(S(=O)(=O)c4cccs4)CC3)sc2c1 | active: 23.1 µM
CSc1ncc(C(=O)NCc2ccccc2)c(-c2ccccc2)n1 | inactive
CON(C)S(=O)(=O)c1cccc(C(=O)Oc2ccc(N(C)S(=O)(=O)c3ccccc3)cc2)c1 | inconclusive: 29.1 µM [rising, partial curve, poor fit]
Cc1cccc(NC(=O)/C=C/c2cccs2)n1 | inconclusive: 23.1 µM [cytotoxic, partial curve, poor fit]
O=C(CN1CCOCC1)Nc1nc(-c2ccc(Cl)cc2)cs1 | inconclusive: 23.1 µM [cytotoxic, single point]
COc1ccc(NC(=O)c2cc(Br)c(Br)s2)cn1 | inconclusive: 20.6 µM [cytotoxic, single point]
FC(F)(F)c1cccc(Nc2nc(N3CCOCC3)nc(N3CCOCC3)n2)c1 | inactive
O=[N+]([O-])c1cccc2ccc(/C=C/c3ccc(F)cc3)nc12 | inconclusive: 18.4 µM [cytotoxic, single point]
Cc1ccc(Cl)cc1NC(=O)C(=O)N1CCCCC1 | inactive
COc1ccccc1NC(=O)C(=O)NNC(=O)c1ccco1 | inconclusive: 29.1 µM [cytotoxic, single point]
O=C(CCc1nnc(CCCCc2ccccc2)o1)NCc1cc(F)ccc1F | inconclusive: 16.4 µM [cytotoxic, partial curve]
COc1ccc(-c2oc3ccc(-c4cc(OC)c(OC)c(OC)c4)cc3c2C#Cc2ccccn2)cc1 | inconclusive: 4.61 µM [cytotoxic, partial curve, poor fit]
CCOCCCNC(=O)c1ccc(CS(=O)(=O)Cc2cccc(C)c2)o1 | inconclusive: 18.4 µM [cytotoxic, single point]
CCc1cc(CNC(=O)c2ccc(OC3CCN(C(C)=O)CC3)c(OC)c2)on1 | inconclusive: 23.1 µM [cytotoxic, partial curve, poor fit]
COc1cc(NC(=O)Cn2cnc(C(=O)Nc3ccc(C)c(C)c3)n2)cc(OC)c1OC | inconclusive: 29.1 µM [rising, single point]
CCOC(=O)C1=CCN(S(=O)(=O)c2ccc(F)cc2)C1c1cccc(F)c1 (centres undefined) | inconclusive: 29.1 µM [cytotoxic, single point]

Compound | Potency
CCOCCCNC(=O)C1CCC(CNS(=O)(=O)c2cccc3nsnc23)CC1 (centres undefined) | active: 20.6 µM
O=C(NCCO)/C(=C\c1cccc([N+](=O)[O-])c1)NC(=O)c1cccs1 | inactive
CCOc1ccc(C2c3[nH]c4ccccc4c3CCN2C(=O)Cc2cccc(OCC)c2OCC)cc1 (centres undefined) | inactive
COc1ccccc1C(CC(N)=O)c1ccco1 (centres undefined) | inconclusive: 29.1 µM [rising, partial curve, poor fit]
Cc1cc(NC(=O)c2ccc3c(c2)C(=O)N(C)C3=O)no1 | inconclusive: 13 µM [rising, partial curve, poor fit]
CC(C)N(C)CCOC(=O)c1ccccc1Cl | inactive
CCOC(=O)c1cnc2ccc(C(=O)OC)cc2c1Nc1ccccc1CC | inconclusive: 10.3 µM [cytotoxic, partial curve, poor fit]
Cc1cc(C)c2c(c1)-c1c(ssc1=S)C(C)(C)N2C(=O)CN1C(=O)c2ccccc2C1=O | inconclusive: 16.4 µM [cytotoxic, single point]
Cc1ccccc1Cn1nnc2c(=O)[nH]c(C3CCN(C(=O)c4ccccc4)CC3)nc21 | inactive
Cn1cc([N+](=O)[O-])c(C(=O)Nc2ccc(C(=O)N3CCCCC3)cc2)n1 | inconclusive: 8.2 µM [cytotoxic, partial curve, poor fit]
CCOc1ccc(S(=O)(=O)N2CCN(C(=O)c3cc4c(s3)CCCC4)CC2)cc1 | active: 3.26 µM
OC(C#CCCN1CCCCC1)(c1ccccc1)c1ccccc1 | inconclusive: 20.6 µM [cytotoxic, single point]
CC(=O)C1=C(C)NC(SCC(=O)c2ccc(Cl)c(Cl)c2)=C(C#N)C1c1ccco1 (centres undefined) | inconclusive: 16.4 µM [cytotoxic, single point]
O=C(CCc1nnc(Cc2ccc(-c3ccccc3)cc2)o1)NCCc1cccnc1 | inactive
CC1Nc2ncnc(N3CCN(c4ccccc4)CC3)c2N(Cc2ccc(Cl)cc2)C1=O (centres undefined) | inconclusive: 32.6 µM [cytotoxic, single point]
CCCC(=O)NC(c1ccco1)c1cc(Cl)c2cccnc2c1O (centres undefined) | inconclusive: 29.1 µM [cytotoxic, single point]
O=c1c2ccccc2sn1-c1ccc(S(=O)(=O)N2CCCCC2)cc1 | inconclusive: 29.1 µM [rising, partial curve, poor fit]
Cc1ccccc1CS(=O)(=O)Cc1ccc(C(=O)NCc2ccco2)o1 | inconclusive: 29.1 µM [cytotoxic, single point]
COc1cc(NC(=O)NCC2CCN(Cc3ccccc3F)CC2)cc(OC)c1 | inactive
CCOc1ccc2c(c1)n(CO)c(=S)n2CO | inconclusive: 29.1 µM [cytotoxic, single point]
c1ccc(-c2nc(N3CCOCC3)cc(N3CCOCC3)n2)cc1 | inactive
CSc1cccc(NC(=O)c2ccccc2N(C)S(C)(=O)=O)c1 | inconclusive: 18.4 µM [cytotoxic, partial curve]
